Experimental data as given in US20030165841, “Use of phosphorothiolate polynucleotides in ligating nucleic acids” (published 2003).
Protein sequences can lack the tags named with them.

Target: T1, Topo65 (human topoisomerase I fragment, residues 215-765) (Homo sapiens) (UniProt P11387)
T1 sequence: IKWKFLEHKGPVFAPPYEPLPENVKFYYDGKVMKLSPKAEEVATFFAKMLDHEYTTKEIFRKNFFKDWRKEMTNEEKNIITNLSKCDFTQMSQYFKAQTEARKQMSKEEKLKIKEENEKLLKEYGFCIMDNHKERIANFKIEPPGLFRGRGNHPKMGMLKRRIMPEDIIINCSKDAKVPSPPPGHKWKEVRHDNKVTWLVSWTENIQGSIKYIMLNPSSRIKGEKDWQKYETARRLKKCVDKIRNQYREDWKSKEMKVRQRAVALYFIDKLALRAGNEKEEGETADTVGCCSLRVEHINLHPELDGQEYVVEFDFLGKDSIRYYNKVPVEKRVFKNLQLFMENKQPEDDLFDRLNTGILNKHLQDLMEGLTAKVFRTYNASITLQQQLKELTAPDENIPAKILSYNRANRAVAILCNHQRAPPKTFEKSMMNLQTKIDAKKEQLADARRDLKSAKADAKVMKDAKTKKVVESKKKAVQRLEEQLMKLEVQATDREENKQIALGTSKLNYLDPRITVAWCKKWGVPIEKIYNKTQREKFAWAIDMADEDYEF
Assay: enzyme reaction in vitro
Settings: AS strand 5' DMT on or off, cleavage and ligation to about 50 and 70 bp products, 600 mM NaCl added, sequence confirmed, purified recombinant protein

| Sequence | activity on this sequence (5'-bridging phosphorothiolate 4 bases from 3' end of top strand) | activity on this sequence (5'-bridging phosphorothiolate 2 bases from 3' end of top strand) |
| --- | --- | --- |
| AATTCGCGGCCGCAAAAAGACTTGATC / GATCAAGTCTTTTTGCGGCCGCG [TCRIBamS/TCRIBamAS] | active |  |
| AATTCGCGGCCGCAAAAAGACTTCG / CGAAGTCTTTTTGCGGCCGCG [TCRIBstBS/TCRIBstBAS] |  | active |
